Assay results: PubChem BioAssay AID463205 (Broad Institute, 2010)
The campaign covered roughly 2,400 compounds. About 20 (0.8%) were called active.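 How the source made its calls: active means AC50 no more than ten times the highest tested concentration, or full inhibition at every dose giving a flat fit (cut at about 30 µM in these data); inconclusive means flat fit with activity between 30% and 70%, or poor-quality invalid fit; inactive means AC50 more than ten times the top tested dose.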 This is one part of the list.

assay: luciferase-based ADP detection interference – biochemical, luminescence, cell-free, homogeneous, artefact control for GSK-3a inhibitor project, dose response (AID 463205); conditions: Cell-free ADP-Glo detection reagents, 5 uM ADP;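 further: kinase-free counter-screen against the ADP-Glo detection reagents only; potency is for inhibitors that reduce the luminescence signal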

AC50, inactive:
NNC(=O)CCCCCCCCCCOCCCCO > 30 µM
COc1cccc(CC(=S)N2CCOCC2)c1 > 30 µM
c1ccc(-c2csc3ncnc(NCc4ccccn4)c23)cc1 > 30 µM
O=C(CN(Cc1ccco1)C(=O)CCC(=O)Nc1ccccn1)NCc1ccccc1 > 30 µM
CN1/C(=C\C=C(/C#N)C(=O)Nc2ccc(Cl)cc2)C(C)(C)c2ccccc21 > 30 µM
Cc1c(O)c(CN2CCCC2)cc2c1oc(=O)c1ccccc12 > 30 µM
CCc1ccc(C2C3=C(CC(C)(C)CC3=O)Nc3c2c(=O)[nH]c2nc(C)nn32)cc1 (stereo unspecified) > 30 µM
CC(=O)Nc1cccc(-c2cnc(N)c(C(=O)c3cccnc3)n2)c1 > 30 µM
O=C(Nc1c(C(=O)O)oc2ccc(Br)cc12)c1ccccc1 > 30 µM
O=C1/C(=C/c2ccc(Br)cc2)Oc2cc(O)ccc21 > 30 µM
O=C(O)c1cccc2c1C(=O)c1ccccc1C2=O > 30 µM
CCOc1ccc(Nc2nc(N)c([N+](=O)[O-])c(N3CCN(CC)CC3)n2)cc1 > 30 µM
CN(C)/C=C/c1c([N+](=O)[O-])c2ccc(O)cc2n1-c1ccccc1 > 30 µM
CCN1CCN(c2nc(N)c([N+](=O)[O-])c(Nc3ccc(C)c(C)c3)n2)CC1 > 30 µM
Cn1c(=O)c2[nH]c(NCC3CCCO3)nc2n(-c2ccccc2)c1=O (stereo unspecified) > 30 µM
CCc1ccc(OCC(O)CNC(C)(C)C)cc1 (stereo unspecified) > 30 µM
O=[N+]([O-])c1ccc(N/N=C/c2ccc(OCc3cccc4ccccc34)cc2)nc1 > 30 µM
COc1ccc(OC)c(C2CC(=O)Nc3n[nH]c(-c4ccccc4)c32)c1 (stereo unspecified) > 30 µM
c1cncc(-c2nnc3n2N=C(c2cccs2)CS3)c1 > 30 µM
COC(=O)c1c(NC(=O)Cc2cccs2)sc2c1CCCC2 > 30 µM
Cc1cc2c(C)c(C)c(=O)[nH]c2cc1N > 30 µM
O=C(NCC1CCCO1)c1ccc(NC(=O)c2cccc([N+](=O)[O-])c2)cc1 (stereo unspecified) > 30 µM
CN(C)CCn1c2c(c(SCC(=O)Nc3nccs3)nc1=O)CCCC2 > 30 µM
CN(C)Cc1c(C(=O)N/N=C/c2ccc(-c3ccccc3)cc2)nnn1-c1nonc1N > 30 µM
COCc1cc(C)nc(OCC(=O)N/N=C/c2ccc(O)cc2)c1C#N > 30 µM
COc1ccccc1OCCNC(=O)C1CCN(C(C)=O)CC1 > 30 µM
COc1ccc(NC(=O)Nc2cc(F)ccc2C)cc1 > 30 µM
COC(=O)c1ccc(CN2C(=O)NC(CC(C)C)C2=O)cc1 (stereo unspecified) > 30 µM
CC(C)C(=O)NC(=S)/C=C1/N(C)c2ccccc2C1(C)C > 30 µM
Cc1c(O)ccc2c3c(c(=O)oc12)CCCC3 > 30 µM
CN1CCc2cccc3c2[C@H]1Cc1ccc(O)c(O)c1-3 > 30 µM
O=C(NC1CCCC1)c1cccc(NC(=O)c2ccco2)c1 > 30 µM
COc1ccc(Cl)cc1C(=O)Nc1ccc(NC(=O)c2ccco2)cc1 > 30 µM
NC(=O)c1ccsc1NC(=O)COC(=O)Cc1ccsc1 > 30 µM
COc1ccc(OCc2nc(N)nc(Nc3ccccc3OC)n2)cc1 > 30 µM
O=C(OCC#CCSc1nnc(-c2ccncc2)o1)c1cccs1 > 30 µM
O=c1cc(-c2ccc(O)cc2)oc2c1ccc1ccccc12 > 30 µM
CC(C)C(=O)NC(=S)Nc1sc2c(c1C(N)=O)CCCC2 > 30 µM
CC(C)(C)N=Cc1c(O)ccc2oc3c(c12)CCCC3 > 30 µM
CCC1(C)Cc2c(sc3nn[nH]c(=O)c23)CO1 (stereo unspecified) > 30 µM
CCC(Oc1ccccc1)C(=O)N(C)CC(=O)N(CC(C)C)c1c(N)n(CC(C)C)c(=O)[nH]c1=O (stereo unspecified) > 30 µM
Cc1oc2ccc(O)c(CN3CCOCC3)c2c1C(=O)c1ccc(Cl)cc1 > 30 µM
COc1ccccc1-c1noc(CSc2nc(N)cc(=O)[nH]2)n1 > 30 µM
CC(C)N=C(NC#N)SCc1ccccc1F > 30 µM
CCOc1c(O)ccc(C2NC(=O)N(C)C(C)=C2C(=O)OC)c1[N+](=O)[O-] (stereo unspecified) > 30 µM
CC(Oc1ccc(Br)cc1)C(=O)N1CCC(C(N)=O)CC1 (stereo unspecified) > 30 µM
c1ccc(Cn2nc(-c3ccccc3)nc2-c2ccccc2)cc1 > 30 µM
COc1ccccc1OCC(=O)Nc1sc2c(c1C(N)=O)CCC2 > 30 µM
O=C(NCCCN1CCCC1)c1cc2c(Cl)nc3ccccc3c2s1 > 30 µM
COc1ccc(-c2cc(C(F)(F)F)nc(SCC(=O)NCc3cccs3)n2)cc1 > 30 µM
Cc1cc(N2CCN(c3ccccc3)CC2)n2c(n1)nc1ccccc12 > 30 µM
COc1ccc(-c2csc(Nc3ccccc3)n2)cc1 > 30 µM
COc1ccc(Cn2nnc(C(=O)Nc3ccc(F)cc3)c2N)cc1 > 30 µM
Cc1ccc(-c2c3c(=O)n(C)c(=O)n(C)c3cn2Cc2ccccn2)cc1 > 30 µM
O=C(CSc1nc2ccccc2c(=O)n1-c1ccc(F)cc1F)c1c[nH]c2ccccc12 > 30 µM
COc1ccc(OCc2nc(N)nc(Nc3cccc(C)c3C)n2)cc1 > 30 µM
Nc1nc(Nc2cccc(F)c2)nc(NCc2ccco2)c1[N+](=O)[O-] > 30 µM
COCCCNc1c2c(nc3nnnn13)CCCC2 > 30 µM
COc1ccc(-c2ncncc2-c2csc(C)n2)c(O)c1 > 30 µM
COc1cc(/C=C2/NC(=O)NC2=O)cc(Br)c1OCc1cccc(C(=O)O)c1 > 30 µM
O=C1NC(c2ccccc2)(C(F)(F)F)C(=O)N1Cc1cccnc1 (stereo unspecified) > 30 µM
COc1ccc(C2c3sc(=O)[nH]c3SC3C4CCC(C4)C23)cc1 (stereo unspecified) > 30 µM
CC(C)(C)OC(=O)N1CCC(NC(=O)c2[nH]cnc2C(=O)Nc2ccccc2)CC1 > 30 µM
COc1ccc(-c2nc3ncccn3c2Nc2ccccc2)cc1 > 30 µM
CCOc1ccc(-n2c(SCC(=O)Nc3ccccc3C)n[nH]c2=O)cc1 > 30 µM
CC1CCCCC12NC(=O)N(CC(=O)Nc1sc3c(c1C(N)=O)CCC3)C2=O (stereo unspecified) > 30 µM
Nc1c(CO)nnn1-c1ccccc1 > 30 µM
N#CC1=C2SCN(c3ccc(F)cc3)CN2C(=O)CC1c1cccc(F)c1 (stereo unspecified) > 30 µM
S=C(Nc1cccnc1)Nc1cccc2cnccc12 > 30 µM
CCCCOc1ccc(-c2nnc(N)s2)cc1 > 30 µM
Cc1cc(Nc2ccc(C(=O)O)cc2)nc(N)n1 > 30 µM
COc1cc(/C=C2\S/C(=N/S(=O)(=O)Cc3ccccc3)NC2=O)c([N+](=O)[O-])cc1OC > 30 µM
Cc1ccc(C(=O)Nc2nnc(C)s2)cc1 > 30 µM
NC1=NC(=O)/C(=C/c2cccs2)S1 > 30 µM
COc1ccc(NC(=O)/C(C#N)=C\C=C\c2ccco2)cc1 > 30 µM
Cc1ccc(-c2cn3cccnc3n2)cc1NC(=O)c1cccs1 > 30 µM
CC(=O)Nc1ccc(Nc2ncnc(N)c2[N+](=O)[O-])cc1 > 30 µM
O=c1cc(-c2cccnc2)oc2c1ccc1ccccc12 > 30 µM
O=C(c1ccco1)c1cn(CC(=O)N2CCCCC2)c2ccccc12 > 30 µM
CC(=O)C1C(c2ccccc2)c2c(n[nH]c2C)CC1(C)O (stereo unspecified) > 30 µM
CCOc1cc2c(C#N)c(N3CCCCC3)nc(N)c2c(N)n1 > 30 µM
Cc1cc(C)nc(NC(=O)c2ccc(Br)s2)n1 > 30 µM
CC(=O)c1cnc(Nc2ccccc2)s1 > 30 µM
COc1ccc(S(=O)(=O)N[C@@H](CC(C)C)C(=O)O)cc1 > 30 µM
CSc1cccc(NC(=O)c2nnn(Cc3ccccc3)c2N)c1 > 30 µM
COC(=O)c1cc(O)c(OCc2ccccc2)c(O)c1 > 30 µM
CCN1C(=O)/C(=C\c2ccco2)C(C(=O)OC)=C1C > 30 µM
COc1cc(C2CC(=O)N3CN(Cc4ccco4)CSC3=C2C#N)ccc1OCc1ccccc1 (stereo unspecified) > 30 µM
COC(=O)[C@@H](NC(=O)NCc1ccccc1F)C(C)C > 30 µM
COc1ccc(-c2oc3cc(O)c(OC)c(O)c3c(=O)c2OC)cc1 > 30 µM
NC(=O)c1c(NC(=O)C(=O)N2CCOCC2)sc2c1CCC2 > 30 µM
Cc1nn2cc(-c3ccccc3)nc2[nH]c1=O > 30 µM
Cc1csc(NC(=O)c2ccc3c(c2)OCO3)n1 > 30 µM
C=CC(=O)Nc1sc2c(c1C(N)=O)CCCC2 > 30 µM
Cc1[nH][nH]c(=O)c1[C@@H](c1ccccc1[N+](=O)[O-])C(C#N)C#N > 30 µM
Nc1ncc(-c2ccccc2)c(-c2ccc(OCc3ccccc3)cc2O)n1 > 30 µM

6 compounds drawn at random from the list so far:
AC50, inactive:
COCc1cc(C)nc(OCC(=O)N/N=C/c2ccc(O)cc2)c1C#N > 30 µM
COc1ccc(OCc2nc(N)nc(Nc3ccccc3OC)n2)cc1 > 30 µM
Cc1cc(N2CCN(c3ccccc3)CC2)n2c(n1)nc1ccccc12 > 30 µM
C=CC(=O)Nc1sc2c(c1C(N)=O)CCCC2 > 30 µM
COc1ccc(-c2ncncc2-c2csc(C)n2)c(O)c1 > 30 µM
NC1=NC(=O)/C(=C/c2cccs2)S1 > 30 µM
